# Screening data, single-dose tests

The chains behind the UniProt entries cited, without tags or fusion partners. Residues count along the entry.
UniProt Q4DA54, 1-478: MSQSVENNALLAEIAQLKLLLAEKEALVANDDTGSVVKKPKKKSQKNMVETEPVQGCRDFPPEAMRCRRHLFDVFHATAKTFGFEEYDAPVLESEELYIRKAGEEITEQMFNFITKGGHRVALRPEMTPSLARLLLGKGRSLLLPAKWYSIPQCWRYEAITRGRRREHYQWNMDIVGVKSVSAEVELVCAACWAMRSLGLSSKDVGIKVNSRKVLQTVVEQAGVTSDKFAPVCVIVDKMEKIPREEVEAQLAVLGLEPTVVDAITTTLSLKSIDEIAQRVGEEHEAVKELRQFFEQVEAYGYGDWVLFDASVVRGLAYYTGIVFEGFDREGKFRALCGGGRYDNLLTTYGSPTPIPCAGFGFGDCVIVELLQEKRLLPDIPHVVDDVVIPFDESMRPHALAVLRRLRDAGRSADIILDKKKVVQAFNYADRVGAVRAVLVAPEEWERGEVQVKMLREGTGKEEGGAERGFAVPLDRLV

Toxoplasma: 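Assay of Toxoplasma gondii numbers, read through their beta-galactosidase reporter with a colour substrate. Concentration: 10 µM. The record gives no direction; the compounds picked for IC50 retests had high values, so higher reads as fewer parasites. Size under these conditions: about 67,000 compounds, about 260 of them at 50% or above in at least one test.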
TcHisRS: 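Enzyme assay of histidyl-tRNA synthetase; the read-out is not stated. Target: Histidine-tRNA ligase, Trypanosoma cruzi CL Brener (UniProt Q4DA54). Compounds at 30 µM. Higher reads as stronger inhibition (inferred: compounds with an IC50 in retests scored well above the rest). About 69,000 compounds were tested under these conditions; 0.045% (about 31) showed 50% or more at least once.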

The filed quantity is “Percent Effect” (%). The controls that fix the scale are not given in the record; negative values are as filed. The compounds are a random part of those screened.

* Cc1ccn(CCC(=O)N2CCCC(Cc3cccnc3)C2)n1 (stereo not shown) : Toxoplasma: 15.48%; TcHisRS: 6.593%
* CN(Cc1ccc(C(=O)O)cc1)C(=O)c1sccc1OC(F)F : Toxoplasma: -1.15%; TcHisRS: -1.064%
* Cc1cc(C)c(CNC(=O)NCc2nnc3n2CCC3)c(=O)[nH]1 : Toxoplasma: -7.275%; TcHisRS: -23.81%
* [H][C@@]12CN(Cc3ccccc3OC)C[C@]1([H])OCC(=O)N2CCOC : Toxoplasma: 2.709%
* CC(C)OC[C@H]1CCC[C@]12CN(C(=O)C1CCOCC1)CCO2 : Toxoplasma: -2.655%; TcHisRS: -1.508%
* CC(C)c1nn(C)c(N(C)C)c1CNCc1cccc2cccnc12.Cl : Toxoplasma: 38.45%
* CC(C)CC1CC(=O)Nc2c1cnn2Cc1ccco1 (stereo not shown) : Toxoplasma: 1.438%; TcHisRS: 4.878%
* OCCN1CCCCC1c1cc[nH]n1 (stereo not shown) : Toxoplasma: 5.685%; TcHisRS: 10.9%
* COCC1CN(Cc2cc(C)on2)Cc2cnn(C)c21.O=C(O)C(F)(F)F.O=C(O)C(F)(F)F (stereo not shown) : Toxoplasma: 7.882%
* Cc1nc(CN2CCC23CCN(Cc2ccoc2)CC3)cs1 : Toxoplasma: -18.2%; TcHisRS: 6.63%
* Cc1cc(C(=O)NCC(c2ccccc2Cl)N2CCOCC2)on1 (stereo not shown) : Toxoplasma: -0.5057%; TcHisRS: 7.882%
* CCNC(=O)c1cc(OC)c2cc(F)cc(C)c2n1 : TcHisRS: 10.89%
* O=C(CCCc1cccs1)N1CCC(N2CCNC2=O)CC1 : Toxoplasma: -7.169%; TcHisRS: 3.79%
* CC1=N[C@@]2(CC[C@@H]3CN(S(=O)(=O)CC(C)C)C[C@@H]32)C(=O)N1CC(C)C : TcHisRS: 3.867%
* O=C(Nc1cnccn1)[C@H]1C[C@H]2OCC[C@H]2N(c2ncc(F)cn2)C1 : TcHisRS: 3.797%
* Clc1ccccc1CN1CCc2nc(C3CCCNC3)ncc2C1 (stereo not shown) : TcHisRS: 11.99%
* CC(C)N1CCCC2(CCN(C(=O)CCCn3cncn3)C2)C1=O (stereo not shown) : Toxoplasma: -5.944%; TcHisRS: 0.8264%
* COc1cccc(CC(=O)N2CC[C@@H](OC)[C@@H]2Cc2cccnc2)c1 : TcHisRS: 8.38%
* Cc1cnn(CC2CN(Cc3nc(C)c(C)o3)CCO2)c1 (stereo not shown) : Toxoplasma: 31.66%; TcHisRS: 4.046%
* Cn1c(=O)oc2cc(Nc3ncc(C#N)cc3Cl)ccc21 : Toxoplasma: -1.429%; TcHisRS: 4.762%
* COc1ccc(Oc2ncccc2C(F)(F)F)cc1CN1CCCC1 : Toxoplasma: 12.05%; TcHisRS: 5.797%
* Cn1ccc(CN2CCCC23CCN(Cc2ccccc2F)CC3)n1.O=C(O)C(F)(F)F.O=C(O)C(F)(F)F : Toxoplasma: -4.307%
* COc1cccc(CN(C)C(C)C(=O)Nc2nc(C)c(C)s2)c1 (stereo not shown) : Toxoplasma: 13.55%; TcHisRS: 2.609%
* CCN(CC)CC1CCN(Cc2ncc(C(C)(C)C)o2)CC1 : Toxoplasma: 2.045%; TcHisRS: 1.667%
* O=C(Cc1cccc(F)c1F)NC1COc2ccccc2C1=O (stereo not shown) : Toxoplasma: -8.587%; TcHisRS: 4.762%
* CCS(=O)(=O)N1CC[C@@H]2[C@H](CC1)N(CC(C)C)CCS2(=O)=O : TcHisRS: 4.301%
* CN(C)C(=O)N1C[C@@H]2CC[C@H](C1)N(C(=O)CCCn1cncn1)C2 : TcHisRS: 2.5%
* O=C1N(c2cccnc2)CCC12CCCN(Cc1cccnc1)C2 (stereo not shown) : TcHisRS: 6.863%
* CS(=O)(=O)Cc1ccc(Cl)cc1NCc1ccccc1F : Toxoplasma: -7.369%; TcHisRS: 4.545%
* CCCOc1cccc(-c2nc3c([nH]2)CCNC3)c1 : Toxoplasma: 3.048%; TcHisRS: 2.4%
* Cn1ccc(CNC(=O)Nc2ccc(S(=O)(=O)C(F)F)cc2)c1 : Toxoplasma: 9.061%; TcHisRS: 9.554%
* Cc1n[nH]c(C)c1C1CCCN1C(=O)Cc1cccc(F)c1 (stereo not shown) : Toxoplasma: -11.03%; TcHisRS: 3.659%
* O=C(CCOCC(F)(F)F)NS(=O)(=O)c1cccnc1 : Toxoplasma: -7.394%; TcHisRS: 6.349%
* Cc1noc([C@@]23CCO[C@@H]2CCN(CC2CCOCC2)C3)n1 : TcHisRS: 2.703%
* [H][C@@]12C[C@@H](c3nnc(C)[nH]3)O[C@]1([H])CN(C(=O)C(C)(C)CC)C2 : Toxoplasma: -27.97%
* Cc1cccc(NC(=O)CCC(=O)NCC(=O)c2ccccc2F)c1 : Toxoplasma: 2.697%; TcHisRS: 7.006%
* O=C(O)C(F)(F)F.[H][C@@]12CC(COCc3cccnc3)C[C@@]1([H])N(S(=O)(=O)C1CC1)CCO2 (stereo partly shown) : Toxoplasma: 9.395%
* CN1CC(=O)N(C2CCC2)Cc2c(NC3CCNCC3)ncnc21 : Toxoplasma: -9.126%; TcHisRS: 7.692%
* CCN(C)C(=O)Nc1cc(F)c(OC)cc1F : Toxoplasma: -2.727%; TcHisRS: 10%
* Cc1cnn(CCCNC(=O)NC2CCN(CC(F)(F)F)C2=O)c1 (stereo not shown) : Toxoplasma: 0.9363%; TcHisRS: 9.091%

For reference, 5 entries once more:

* COc1cccc(CC(=O)N2CC[C@@H](OC)[C@@H]2Cc2cccnc2)c1 : TcHisRS: 8.38%
* Cc1ccn(CCC(=O)N2CCCC(Cc3cccnc3)C2)n1 (stereo not shown) : Toxoplasma: 15.48%; TcHisRS: 6.593%
* CC(C)c1nn(C)c(N(C)C)c1CNCc1cccc2cccnc12.Cl : Toxoplasma: 38.45%
* Cc1cnn(CC2CN(Cc3nc(C)c(C)o3)CCO2)c1 (stereo not shown) : Toxoplasma: 31.66%; TcHisRS: 4.046%
* CCN(C)C(=O)Nc1cc(F)c(OC)cc1F : Toxoplasma: -2.727%; TcHisRS: 10%

Data taken from ChEMBL document CHEMBL3988442, “University of Dundee, Small-Polar-MMV Screening Library” (2021).